Reference: the supplement of paper PMC8728848
The other results are listed elsewhere or left out.

Columns and labels:
Experiment in all cases: glycan array binding signal (z-score within array); higher = stronger binding
Settings in all cases: glycan notation: IUPAC condensed, linker removed
[1] = target: Gal(b1-4)GlcNAc(b1-3)Gal(b1-4)GlcNAc(b1-2)[Gal(b1-4)GlcNAc(b1-3)Gal(b1-4)GlcNAc(b1-6)]Man(a1-6)[Gal(b1-4)GlcNAc(b1-3)Gal(b1-4)GlcNAc(b1-2)Man(a1-3)]Man(b1-4)GlcNAc(b1-4)GlcNAc
Outline: (§1)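 The binding signal is a Z-score computed within each array. Data were drawn from 3228 arrays in the Consortium for Functional Glycomics database, restricted to those with a known protein sequence. Scores were averaged over arrays of the same protein sequence at different concentrations or buffers, and over linkers, and negative values can be taken as non-binding.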

[2] = target: Gal(b1-4)GlcNAc(b1-3)Gal(b1-4)GlcNAc(b1-2)[Gal(b1-4)GlcNAc(b1-3)Gal(b1-4)GlcNAc(b1-6)]Man(a1-6)[Gal(b1-4)GlcNAc(b1-3)Gal(b1-4)GlcNAc(b1-2)Man(a1-3)]Man(b1-4)GlcNAc(b1-4)[Fuc(a1-6)]GlcNAc
Outline: as §1

[3] = target: Gal(b1-4)GlcNAc(b1-3)Gal(b1-4)GlcNAc(b1-3)Gal(b1-4)GlcNAc
Outline: as §1

[4] = target: Gal(b1-4)GlcNAc(b1-3)Gal(b1-4)GlcNAc(b1-3)Gal(b1-4)GlcNAc(b1-2)Man(a1-3)[Gal(b1-4)GlcNAc(b1-3)Gal(b1-4)GlcNAc(b1-3)Gal(b1-4)GlcNAc(b1-2)Man(a1-6)]Man(b1-4)GlcNAc(b1-4)GlcNAc
Outline: as §1

[5] = target: Gal(b1-4)GlcNAc(b1-3)Gal(b1-4)GlcNAc(b1-3)Gal(b1-4)GlcNAc(b1-2)Man(a1-3)[Gal(b1-4)GlcNAc(b1-3)Gal(b1-4)GlcNAc(b1-3)Gal(b1-4)GlcNAc(b1-2)Man(a1-6)]Man(b1-4)GlcNAc(b1-4)[Fuc(a1-6)]GlcNAc
Outline: as §1

[6] = target: Gal(b1-4)GlcNAc(b1-3)Gal(b1-4)GlcNAc(b1-3)Gal(b1-4)GlcNAc(b1-2)[Gal(b1-4)GlcNAc(b1-3)Gal(b1-4)GlcNAc(b1-3)Gal(b1-4)GlcNAc(b1-6)]Man(a1-6)[Gal(b1-4)GlcNAc(b1-3)Gal(b1-4)GlcNAc(b1-3)Gal(b1-4)GlcNAc(b1-2)Man(a1-3)]Man(b1-4)GlcNAc(b1-4)[Fuc(a1-6)]GlcNAc
Outline: as §1

[7] = target: Gal(b1-4)GlcNAc(b1-3)Gal(b1-4)GlcNAc(b1-3)Gal(b1-4)GlcNAc(b1-3)Gal(b1-4)GlcNAc(b1-2)Man(a1-3)[Gal(b1-4)GlcNAc(b1-3)Gal(b1-4)GlcNAc(b1-3)Gal(b1-4)GlcNAc(b1-3)Gal(b1-4)GlcNAc(b1-2)Man(a1-6)]Man(b1-4)GlcNAc(b1-4)GlcNAc
Outline: as §1

[8] = target: Gal(b1-4)GlcNAc(b1-3)Gal(b1-4)GlcNAc(b1-3)Gal(b1-4)GlcNAc(b1-3)Gal(b1-4)GlcNAc(b1-2)Man(a1-3)[Gal(b1-4)GlcNAc(b1-3)Gal(b1-4)GlcNAc(b1-3)Gal(b1-4)GlcNAc(b1-3)Gal(b1-4)GlcNAc(b1-2)Man(a1-6)]Man(b1-4)GlcNAc(b1-4)[Fuc(a1-6)]GlcNAc
Outline: as §1

[9] = target: Gal(b1-4)GlcNAc(b1-3)Gal(b1-4)GlcNAc(b1-3)Gal(b1-4)GlcNAc(b1-3)Gal(b1-4)GlcNAc(b1-2)[Gal(b1-4)GlcNAc(b1-3)Gal(b1-4)GlcNAc(b1-3)Gal(b1-4)GlcNAc(b1-3)Gal(b1-4)GlcNAc(b1-6)]Man(a1-6)[Gal(b1-4)GlcNAc(b1-3)Gal(b1-4)GlcNAc(b1-3)Gal(b1-4)GlcNAc(b1-3)Gal(b1-4)GlcNAc(b1-2)Man(a1-3)]Man(b1-4)GlcNAc(b1-4)[Fuc(a1-6)]GlcNAc
Outline: as §1

[10] = target: Gal(b1-4)GlcNAc(b1-3)Gal(b1-4)GlcNAc(b1-3)Gal(b1-4)GlcNAc(b1-3)Gal(b1-4)GlcNAc(b1-3)Gal(b1-4)GlcNAc(b1-2)Man(a1-3)[Gal(b1-4)GlcNAc(b1-3)Gal(b1-4)GlcNAc(b1-3)Gal(b1-4)GlcNAc(b1-3)Gal(b1-4)GlcNAc(b1-3)Gal(b1-4)GlcNAc(b1-2)Man(a1-6)]Man(b1-4)GlcNAc(b1-4)GlcNAc
Outline: as §1

[11] = target: Gal(b1-4)GlcNAc(b1-3)Gal(b1-4)GlcNAc(b1-3)Gal(b1-4)GlcNAc(b1-3)Gal(b1-4)GlcNAc(b1-3)Gal(b1-4)GlcNAc(b1-2)Man(a1-3)[Gal(b1-4)GlcNAc(b1-3)Gal(b1-4)GlcNAc(b1-3)Gal(b1-4)GlcNAc(b1-3)Gal(b1-4)GlcNAc(b1-3)Gal(b1-4)GlcNAc(b1-2)Man(a1-6)]Man(b1-4)GlcNAc(b1-4)[Fuc(a1-6)]GlcNAc
Outline: as §1

[12] = target: Gal(b1-4)GlcNAc(b1-3)Gal(b1-4)GlcNAc(b1-3)Gal(b1-4)GlcNAc(b1-3)Gal(b1-4)GlcNAc(b1-3)Gal(b1-4)GlcNAc(b1-2)[Gal(b1-4)GlcNAc(b1-3)Gal(b1-4)GlcNAc(b1-3)Gal(b1-4)GlcNAc(b1-3)Gal(b1-4)GlcNAc(b1-3)Gal(b1-4)GlcNAc(b1-6)]Man(a1-6)[Gal(b1-4)GlcNAc(b1-3)Gal(b1-4)GlcNAc(b1-3)Gal(b1-4)GlcNAc(b1-3)Gal(b1-4)GlcNAc(b1-3)Gal(b1-4)GlcNAc(b1-2)Man(a1-3)]Man(b1-4)GlcNAc(b1-4)[Fuc(a1-6)]GlcNAc
Outline: as §1

[13] = target: Gal(b1-4)GlcNAc(b1-3)Gal(b1-4)GlcNAc(b1-3)Gal(b1-4)GlcNAc(b1-3)Gal(b1-4)GlcNAc(b1-3)Gal(b1-4)GlcNAc(b1-3)Gal(b1-4)GlcNAc(b1-2)Man(a1-3)[Gal(b1-4)GlcNAc(b1-3)Gal(b1-4)GlcNAc(b1-3)Gal(b1-4)GlcNAc(b1-3)Gal(b1-4)GlcNAc(b1-3)Gal(b1-4)GlcNAc(b1-3)Gal(b1-4)GlcNAc(b1-2)Man(a1-6)]Man(b1-4)GlcNAc(b1-4)GlcNAc
Outline: as §1

[14] = target: Gal(b1-4)GlcNAc(b1-3)Gal(b1-4)GlcNAc(b1-3)GalNAc
Outline: as §1

[15] = target: Gal(b1-4)GlcNAc(b1-3)Gal(b1-4)GlcNAc(b1-3)[Gal(b1-4)GlcNAc(b1-3)Gal(b1-4)GlcNAc(b1-6)]GalNAc
Outline: as §1

[16] = target: Gal(b1-4)GlcNAc(b1-3)Gal(b1-4)GlcNAc(b1-6)[Gal(b1-3)]GalNAc
Outline: as §1

[17] = target: Gal(b1-4)GlcNAc(b1-3)Gal(b1-4)[Fuc(a1-3)]GlcNAc(b1-3)Gal(b1-4)[Fuc(a1-3)]GlcNAc
Outline: as §1

[18] = target: Gal(b1-4)GlcNAc(b1-3)GalNAc
Outline: as §1

[19] = target: Gal(b1-4)GlcNAc(b1-3)[Fuc(a1-3)GlcNAc(b1-6)]Gal(b1-4)Glc
Outline: as §1

[20] = target: Gal(b1-4)GlcNAc(b1-3)[Gal(b1-4)GlcNAc(b1-6)]Gal(b1-4)GlcNAc
Outline: as §1

[21] = target: Gal(b1-4)GlcNAc(b1-3)[GlcNAc(b1-6)]Gal(b1-4)GlcNAc
Outline: as §1

[22] = target: Gal(b1-4)GlcNAc(b1-6)Gal(b1-4)GlcNAc
Outline: as §1

[23] = target: Gal(b1-4)GlcNAc(b1-6)GalNAc
Outline: as §1

[24] = target: Gal(b1-4)GlcNAc(b1-6)[Gal(b1-3)]GalNAc
Outline: as §1

[25] = target: Gal(b1-4)GlcNAc(b1-6)[Gal(b1-4)GlcNAc(b1-3)]GalNAc
Outline: as §1

Gal(b1-4)GlcNAc6P = target: Gal(b1-4)GlcNAc6P
Outline: as §1

Gal(b1-6)Gal = target: Gal(b1-6)Gal
Outline: as §1

Gal3S(b1-3)GalNAc = target: Gal3S(b1-3)GalNAc
Outline: as §1

Gal3S(b1-3)GlcNAc = target: Gal3S(b1-3)GlcNAc
Outline: as §1

[26] = target: Gal3S(b1-3)[Fuc(a1-4)]GlcNAc
Outline: as §1

Gal3S(b1-4)Glc = target: Gal3S(b1-4)Glc
Outline: as §1

Gal3S(b1-4)Glc6S = target: Gal3S(b1-4)Glc6S
Outline: as §1

Gal3S(b1-4)GlcNAc = target: Gal3S(b1-4)GlcNAc
Outline: as §1

[27] = target: Gal3S(b1-4)[Fuc(a1-3)]Glc6S
Outline: as §1

[28] = target: Gal3S(b1-4)[Fuc(a1-3)]GlcNAc
Outline: as §1

[29] = target: Gal3S(b1-4)[Fuc(a1-3)]GlcNAc6S
Outline: as §1

Gal3S4S(b1-4)GlcNAc = target: Gal3S4S(b1-4)GlcNAc
Outline: as §1

Gal3S6S(b1-4)GlcNAc = target: Gal3S6S(b1-4)GlcNAc
Outline: as §1

Gal3S6S(b1-4)GlcNAc6S = target: Gal3S6S(b1-4)GlcNAc6S
Outline: as §1

Gal4S(b1-4)GlcNAc = target: Gal4S(b1-4)GlcNAc
Outline: as §1

Gal4S6S(b1-4)GlcNAc = target: Gal4S6S(b1-4)GlcNAc
Outline: as §1

Gal6P(b1-4)GlcNAc = target: Gal6P(b1-4)GlcNAc
Outline: as §1

Gal6S(b1-3)GlcNAc = target: Gal6S(b1-3)GlcNAc
Outline: as §1

Gal6S(b1-3)GlcNAc6S = target: Gal6S(b1-3)GlcNAc6S
Outline: as §1

Gal6S(b1-4)Glc = target: Gal6S(b1-4)Glc
Outline: as §1

B1: Agalectin (Anopheles gambiae) (protein)
chain: MSNRPFTAKFPRYPENGDEVFIRGKLKDDAKSFSVNFCLPRPAQVAEHQTPPYIALHFKTIYDERDDTSRVVLNWKNLQWQQEEVLDNYWHVDRSQTFRVVFRLHEDCIKVFVNSVDHPPDYQFPVQLPLDQIESIELWDDVEHVEEISFRYDNGNSY
- glycan array binding signal (z-score) [1]: 0.848
- glycan array binding signal (z-score) [2]: -0.276
- glycan array binding signal (z-score) [3]: 0.007
- glycan array binding signal (z-score) [4]: 2.89
- glycan array binding signal (z-score) [5]: 1.86
- glycan array binding signal (z-score) [6]: 1.48
- glycan array binding signal (z-score) [7]: 1.76
- glycan array binding signal (z-score) [8]: 3.26
- glycan array binding signal (z-score) [9]: -0.07
- glycan array binding signal (z-score) [10]: 1.15
- glycan array binding signal (z-score) [11]: 1.35
- glycan array binding signal (z-score) [12]: 0.622
- glycan array binding signal (z-score) [13]: 0.694
- glycan array binding signal (z-score) [14]: 0.216
- glycan array binding signal (z-score) [15]: 1.1
- glycan array binding signal (z-score) [16]: 1.67
- glycan array binding signal (z-score) [17]: 0.018
- glycan array binding signal (z-score) [18]: -0.509
- glycan array binding signal (z-score) [19]: -0.172
- glycan array binding signal (z-score) [20]: 0.477
- glycan array binding signal (z-score) [21]: 1.35
- glycan array binding signal (z-score) [22]: -0.474
- glycan array binding signal (z-score) [23]: 0.194
- glycan array binding signal (z-score) [24]: -0.657
- glycan array binding signal (z-score) [25]: -0.199
- glycan array binding signal (z-score) (Gal(b1-4)GlcNAc6P): -0.18
- glycan array binding signal (z-score) (Gal(b1-6)Gal): -1.18
- glycan array binding signal (z-score) (Gal3S(b1-3)GalNAc): 0.617
- glycan array binding signal (z-score) (Gal3S(b1-3)GlcNAc): -0.175
- glycan array binding signal (z-score) [26]: 0.674
- glycan array binding signal (z-score) (Gal3S(b1-4)Glc): -0.709
- glycan array binding signal (z-score) (Gal3S(b1-4)Glc6S): -0.949
- glycan array binding signal (z-score) (Gal3S(b1-4)GlcNAc): 0.497
- glycan array binding signal (z-score) [27]: 1.35
- glycan array binding signal (z-score) [28]: -0.534
- glycan array binding signal (z-score) [29]: -0.269
- glycan array binding signal (z-score) (Gal3S4S(b1-4)GlcNAc): -0.443
- glycan array binding signal (z-score) (Gal3S6S(b1-4)GlcNAc): -0.244
- glycan array binding signal (z-score) (Gal3S6S(b1-4)GlcNAc6S): -0.011
- glycan array binding signal (z-score) (Gal4S(b1-4)GlcNAc): 0.381
- glycan array binding signal (z-score) (Gal4S6S(b1-4)GlcNAc): 0.114
- glycan array binding signal (z-score) (Gal6P(b1-4)GlcNAc): -0.335
- glycan array binding signal (z-score) (Gal6S(b1-3)GlcNAc): -1.05
- glycan array binding signal (z-score) (Gal6S(b1-3)GlcNAc6S): -0.589
- glycan array binding signal (z-score) (Gal6S(b1-4)Glc): -0.372
